Most values lie at the floor of the assay. Slopes are relative: functional sequences can read slightly below zero.

This series relates to Saccharomyces cerevisiae PS128 hsf1 delta, HSF1(1-493) fusion. The experiment in a line: growth estimate (transactivation domain function in HSF1 fusion, heat-shock survival) (a.u. (slope of normalised read count over time)); higher = stronger growth at 37°C, i.e. more transactivation activity. As to conditions: library: random library.
Take DVRVVGVLRRRRNGIRTLYL: the growth estimate is under -0.25. Next, SVSIIVRDIWLKWRNANIPS: under -0.25; GGVPVFHQVYGGSPAFYLWP: -0.243; FVRVEAGTCLGTCMGGK: under -0.25. For the substance FCRAAFGFGPHTCANRVSAL, the growth estimate was under -0.25. Next, LQGVYQYLLLNALRGEGRPG: under -0.25.

As for YGEGMSPPGGDRVLRGKIAS, the growth estimate was under -0.25.

Take HCTVPKMEPRKSALRRRCRD: the growth estimate is under -0.25. The result for VVIKSVAFSFFTNVSLLLAL reads -0.246; that for KSFTRRTTI, under -0.25. The result for SNYVLRLVRGPCRNVPMTVP reads under -0.25.

As for CVDLIIIAFGRSIARRKHGA, the growth estimate is under -0.25.

For HITSTVSATYRSASL, the growth estimate is under -0.25. Next, EVTTTL: under -0.25. Take GNTKGREGSQRK: the growth estimate is under -0.25. LRHPGWSDAALGPIGVSDFT: the growth estimate was under -0.25. Next, YHTPG: under -0.25; KAVSDPNMALTVVMPSYGR: under -0.25.

On to GEPNLTKCVLPGPSVRLRAP, for which the growth estimate is under -0.25. As for HRLHIRLSAELAYNVGTRVP, the growth estimate was under -0.25.

LCRKPMKCKGNLKNCRYSLW: the growth estimate was under -0.25. LGNAGVLRDVK: the growth estimate is under -0.25. Next, RFRVCSISGVHLAVHGCRID: -0.174. Next, TPNGSVRGILAPEWEAPTQL: under -0.25; HGLSWDWHTSGMRASEGSTC: under -0.25. The result for IRFPSSVGDSGHGWSIQYLL reads under -0.25; that for TQVLLTGWSGPARFGNRYLQ, under -0.25.

Turning to ITEIREN, the growth estimate is under -0.25.

For the substance WVV, the growth estimate was under -0.25. Next, CERHRVLDIGSPAPYC: under -0.25; LMSQLNFPVDCPIVEQDRTR: under -0.25. The result for GRLTVCY reads under -0.25; that for LTNRKVR, under -0.25. VKVHEVRRQVRNHGGQTVCQ: the growth estimate is under -0.25. The result for HGHRHRRRPFVPRRTRKQCL reads under -0.25. Take PWVLGRLGSRQHSN: the growth estimate is under -0.25. The result for QTRVVGSDNWQR reads under -0.25; that for STY, under -0.25; that for FPRDRVVTLGL, under -0.25. For the substance LPDGQ, the growth estimate was under -0.25. Next, RLML: under -0.25; GVTVTGVTQWTSP: under -0.25; RATYMVVAGWSAIAGLNGTL: under -0.25. TCSRSP: the growth estimate is under -0.25. As to TVRGTLLEATASLGPMHIKR, the growth estimate is -0.231. Next, RWGRGI: under -0.25; YFS: under -0.25; HTSYKMVLVRWIPRRAYIRE: under -0.25. Consider TVERRVSFWASGLECWPLIW, for which the growth estimate was under -0.25. The result for FRYMLKRPKNSTPIIQIATV reads under -0.25; that for PHSPLGMSPFFVSVPLVTCE, under -0.25; that for IWITNRSRSY, under -0.25. The result for ILFHSDHYSMCCLRPLTILL reads under -0.25.

On to AWGREDRRSYGTRPIC, for which the growth estimate is under -0.25. With DRVIVWA, the growth estimate is under -0.25. In the case of GVAANYAWFDTSCILKSART, the growth estimate was under -0.25. As for VTSTGNKVGRP, the growth estimate was under -0.25. PSRYSLPEAPDNTIRAPDQS: the growth estimate was under -0.25. Next, LRVQLQKISAGVLTYYRNLL: under -0.25; RLKNWIYPNLH: under -0.25; HGCVLRSAWGYFSQTYEGSK: under -0.25.

Consider VVYSKPRPLQYATLFSLKAG, for which the growth estimate is under -0.25. The result for WRDYDGGTLELCVLNYACWP reads under -0.25. For the substance TRGVAMPQNHSDTGRLSTRQ, the growth estimate is -0.246.

For the substance LPTYSKEIRPLVQNALRAVT, the growth estimate is under -0.25.

Consider SQSDGVRMDKGRSASAIIGR, for which the growth estimate was under -0.25.

Turning to RQAALIAFQLGTTILCTGRG, the growth estimate is under -0.25. Take CEPGVHQRL: the growth estimate is under -0.25.

On to RLSLRFLRVTSKPDRSL, for which the growth estimate was under -0.25.

With WQVTSAKYSMQRSG, the growth estimate is under -0.25. As for TVRFFSSAYNG, the growth estimate was under -0.25. VDI: the growth estimate is under -0.25. For GKLANWPETRHALGSHYMTL, the growth estimate was under -0.25. The result for SSRNSDGSRAKSAPLWASEK reads under -0.25.

With PWRFEDYSSGRPVRAWR, the growth estimate is under -0.25. Next, RSARGDDVDSRV: under -0.25. Next, SGRGGRGSWSSSRTDAPGLV: under -0.25; DKVIRVESWVLWI: under -0.25.

With GEYSSFAVWLRPEVDFLEGT, the growth estimate is -0.0514.

With FNCVHNKQNHGAKEGKSAPV, the growth estimate was under -0.25.

For the substance PQGYAVLAS, the growth estimate was under -0.25.

Turning to IGSCIQARYIQPGLSFGLLV, the growth estimate is under -0.25. The result for QRILYEY reads under -0.25; that for QDRGVHALNCDG, under -0.25. For NLESGSSKASSLKSPDATIG, the growth estimate is -0.219. As to SGIFISLMTVNVNGSFPEGG, the growth estimate was under -0.25. The result for AELNT reads under -0.25; that for SVKRPGGSLGT, under -0.25; that for VLDSNHQGVDPPNAMSSVGS, under -0.25. In the case of TEFSREARQGAIWVDCSSRL, the growth estimate was under -0.25. Next, ETQISIDISSCPVSMDGILG: under -0.25; ERSCYLASARPYYLVRTSVT: under -0.25. Regarding VTMID, the growth estimate is -0.231. Next, TYLPTTLQEQGHGRAPLLGS: under -0.25; DPPSTPLSHSLTP: under -0.25. In the case of QCSRFKSVVL, the growth estimate was -0.249. Take DGMSLKPEWILQVDSLRCFG: the growth estimate was under -0.25. For LIVHLRRSCQHLRLFNMQRG, the growth estimate is under -0.25. The result for VMPELYGDLAGEPG reads under -0.25; that for VLEVNVIRSVYGSLGLAVML, under -0.25; that for DGMIW, under -0.25.

Consider VQVEHGPKVGVQATLGARFT, for which the growth estimate is under -0.25. The result for KTGDFRQVMETQVV reads under -0.25. In the case of SSAL, the growth estimate is under -0.25.

Take FRDPETISFH: the growth estimate was under -0.25. The result for GSLGRDAVPYP reads under -0.25; that for ETPIFLISAASATSHDSHPG, under -0.25; that for GFVNQTCWPRQVNQYDAYQW, under -0.25. Consider WEP, for which the growth estimate was under -0.25.

For the substance MTIVNDV, the growth estimate was under -0.25. Consider TLLIRGRGS, for which the growth estimate is under -0.25. With RIDDILFSLWVVFAYR, the growth estimate was under -0.25.

On to APSAVHNRCQPRSARGSAFP, for which the growth estimate is under -0.25.

The record behind these values is the supplement of paper PMC5949888.
